Assay results taken from US12194105B2, “Composition and method for new antimicrobial agents with secondary mode of action provided by conjugation of an antimicrobial to a guanidinium-rich molecular transporter” (The Board of Trustees of the Leland Stanford Junior …, priority 2018, dated 2025).
Some of these results come from one statement about several compounds together.

What does the source list for `CN[C@H](CC(C)C)C(=O)N[C@H]1C(=O)N[C@@H](CC(N)=O)C(=O)N[C@H]2C(=O)N[C@H]3C(=O)N[C@H](C(=O)N[C@H](C(=O)NCCCCCC(=O)N[C@H](CCCNC(=N)N)C(=O)N[C@H](CCCNC(=N)N)C(=O)N[C@H](CCCNC(=N)N)C(=O)N[C@H](CCCNC(=N)N)C(=O)N[C@H](CCCNC(=N)N)C(=O)N[C@H](CCCNC(=N)N)C(=O)N[C@H](CCCNC(=N)N)C(=O)N[C@H](CCCNC(=N)N)C(N)=O)c4cc(O)cc(O)c4-c4cc3ccc4O)[C@H](O)c3ccc(c(Cl)c3)Oc3cc2cc(c3O[C@@H]2O[C@H](CO)[C@@H](O)[C@H](O)[C@H]2O[C@H]2C[C@](C)(N)[C@H](O)[C@H](C)O2)Oc2ccc(cc2Cl)[C@H]1O` [V-r8, vancomycin-D-octaarginine]?
MIC (H. pylori): > 32 µM; MIC (A. baumannii): > 32 µM
